The other results are listed elsewhere or left out. Repeats are few or missing, and single values can be far off.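 Imaging used 1,536-well plates; nuclei positive for cleaved PARP by antibody were divided by total DNA-stained nuclei to yield the apoptosis fraction. Doses for screening kept most cells viable, and cell lines differ markedly in resting and induced cleaved-PARP levels.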
What was measured:
Experiment in all cases: cleaved PARP positive nuclei fraction relative to DMSO control; melanoma cells; higher = more apoptosis
Conditions in all cases: library dose: low library concentration; 72 h
501Mel = system: 501Mel
A101D = system: A101D
A2058 = system: A2058
A375 = system: A375
C32 = system: C32
CBRC008 = system: CBRC008 (line from a melanoma biopsy)
CBRC014 = system: CBRC014 (line from a melanoma biopsy)
CBRC017 = system: CBRC017 (line from a melanoma biopsy)
CBRC034 = system: CBRC034 (line from a melanoma biopsy)
COLO792 = system: COLO792
COLO800 = system: COLO800
COLO829 = system: COLO829
G361 = system: G361
IPC-298 = system: IPC-298
IST-MEL1 = system: IST-MEL1
LB2518-MEL = system: LB2518-MEL
LOXIMVI = system: LOXIMVI
MEL-HO = system: MEL-HO
CBRC016 = system: CBRC016 (line from a melanoma biopsy)

| Structure (SMILES) | cleaved PARP positive nuclei fraction (501Mel) [%] | cleaved PARP positive nuclei fraction (A101D) [%] | cleaved PARP positive nuclei fraction (A2058) [%] | cleaved PARP positive nuclei fraction (A375) [%] | cleaved PARP positive nuclei fraction (C32) [%] | cleaved PARP positive nuclei fraction (CBRC008) [%] | cleaved PARP positive nuclei fraction (CBRC014) [%] | cleaved PARP positive nuclei fraction (CBRC017) [%] | cleaved PARP positive nuclei fraction (CBRC034) [%] | cleaved PARP positive nuclei fraction (COLO792) [%] | cleaved PARP positive nuclei fraction (COLO800) [%] | cleaved PARP positive nuclei fraction (COLO829) [%] | cleaved PARP positive nuclei fraction (G361) [%] | cleaved PARP positive nuclei fraction (IPC-298) [%] | cleaved PARP positive nuclei fraction (IST-MEL1) [%] | cleaved PARP positive nuclei fraction (LB2518-MEL) [%] | cleaved PARP positive nuclei fraction (LOXIMVI) [%] | cleaved PARP positive nuclei fraction (MEL-HO) [%] | cleaved PARP positive nuclei fraction (CBRC016) [%] |
| --- | --- | --- | --- | --- | --- | --- | --- | --- | --- | --- | --- | --- | --- | --- | --- | --- | --- | --- | --- |
| CS(=O)(=O)c1ccc(C(=O)Nc2ccc(Cl)c(-c3ccccn3)c2)c(Cl)c1 [vismodegib] + COc1ccc(Cl)c(Nc2nc3ccccc3nc2NS(=O)(=O)c2cccc(NC(=O)C(C)(C)N)c2)c1 [XL147] (first compound 1 µM, partner dose 0.8 µM) | 96 | 77.9 | 310 | 141 | 69.9 | 337 | 97.2 | 118 | 73.3 | 70.2 | 46.4 | 63 | 70.9 | 94.8 | 142 | 55.9 | 51.2 | 66.9 |  |
| CN(c1ncccc1CNc1nc(Nc2ccc3c(c2)CC(=O)N3)ncc1C(F)(F)F)S(C)(=O)=O + CC(C)CCN1c2nc(Nc3cc(F)c(O)c(F)c3)ncc2N(C)C(=O)C1C [BID1870] (first compound 0.08 µM, partner dose 0.2 µM) | 91.1 | 10500 | 85 |  | 191 | 315 | 119 | 118 |  | 188 | 67.8 | 113 | 108 | 47.3 | 38.4 | 67.3 | 84.4 |  | 102 |
| C[C@@H](N)c1ccc(C(=O)Nc2ccnc3[nH]ccc23)cc1 + Cn1sc(=O)n(Cc2ccccc2)c1=O [TDZD-8] (first compound 0.4 µM, partner dose 0.4 µM) | 101 | 102 | 113 | 180 | 42.4 | 253 | 85.5 | 121 | 58.8 | 135 | 40.1 | 111 | 139 | 84.3 | 64.5 | 92.7 | 74.6 | 45.8 | 30.2 |
| NC1(c2ccc(-c3nc4ccn5c(=O)[nH]nc5c4cc3-c3ccccc3)cc2)CCC1 + CN1CCN(c2ccc3nc(-c4c(N)c5c(F)cccc5[nH]c4=O)[nH]c3c2)CC1 [Dovitinib] (first compound 0.4 µM, partner dose 0.1 µM) | 195 | 316 | 94.6 | 432 | 90.5 | 48.3 | 92.3 | 66.4 | 277 | 111 | 71.4 | 138 | 194 | 46.2 | 70.9 | 121 | 93.5 | 35.6 | 37.8 |
| NC1(c2ccc(-c3nc4ccn5c(=O)[nH]nc5c4cc3-c3ccccc3)cc2)CCC1 + O=C(O)c1ccc2c(c1)nc(Nc1cccc(Cl)c1)c1ccncc12 [CX4945] (first compound 0.4 µM, partner dose 0.4 µM) | 67.7 | 44.2 | 168 | 146 | 83.2 | 225 | 87.7 | 136 | 263 | 244 | 77.1 | 126 | 225 | 95.5 | 67 | 83.3 | 139 | 107 | 229 |
| Cn1cnc2c(F)c(Nc3ccc(Br)cc3Cl)c(C(=O)NOCCO)cc21 [selumetinib] + Cn1c(Nc2ccc(C(F)(F)F)cc2)nc2cc(Oc3ccnc(-c4ncc(C(F)(F)F)[nH]4)c3)ccc21 [CHIR265] (first compound 0.015 µM, partner dose 0.08 µM) | 347 | 163 | 90.5 | 508 | 99.2 | 248 | 103 | 241 | 130 | 641 | 140 | 178 | 288 | 240 | 74.4 | 254 | 114 | 168 | 47.5 |
| CN(c1ncccc1CNc1nc(Nc2ccc3c(c2)CC(=O)N3)ncc1C(F)(F)F)S(C)(=O)=O + Cn1c(Nc2ccc(C(F)(F)F)cc2)nc2cc(Oc3ccnc(-c4ncc(C(F)(F)F)[nH]4)c3)ccc21 [CHIR265] (first compound 0.08 µM, partner dose 0.08 µM) | 93.3 | 110 | 264 | 1160 | 92 | 190 | 117 | 209 | 109 | 188 | 88.5 | 132 | 192 | 64.9 | 78.8 | 349 | 163 | 28.3 | 83.2 |
| Cn1sc(=O)n(Cc2ccccc2)c1=O + CS(=O)(=O)c1ccc(C(=O)Nc2ccc(Cl)c(-c3ccccn3)c2)c(Cl)c1 [vismodegib] (first compound 0.4 µM, partner dose 1 µM) | 133 | 40 | 80.5 | 97.9 | 71.2 | 79.7 | 106 | 428 | 90.4 | 145 | 63.3 | 78.9 | 84.3 | 44.5 | 62 | 188 | 39.6 | 74.5 | 37 |
| CS(=O)(=O)c1ccc(C(=O)Nc2ccc(Cl)c(-c3ccccn3)c2)c(Cl)c1 [vismodegib] + O=C(O)c1ccc2c(c1)nc(Nc1cccc(Cl)c1)c1ccncc12 [CX4945] (first compound 1 µM, partner dose 0.4 µM) | 64.7 | 86.1 | 176 | 83.6 | 67.4 | 109 | 93.4 | 119 | 110 | 164 | 164 | 62.7 | 187 | 60.2 | 112 | 43.6 | 43 | 67.4 | 393 |
| C[C@@H](N)c1ccc(C(=O)Nc2ccnc3[nH]ccc23)cc1 + COc1ccc(COc2ccc(Cc3cnc(N)nc3N)cc2OC)cc1 [GW2580] (first compound 0.4 µM, partner dose 1 µM) | 55.4 | 10.2 | 33.3 |  | 41 | 51.4 | 124 | 106 |  | 32.8 | 31.8 | 139 | 39.6 | 48.4 | 192 | 68.3 | 247 |  | 110 |

Source: the supplement of paper PMC4604168 (melanoma cell lines)
